{"source": "PubChem BioAssay AID588345", "about": "(Broad Institute, 2011)", "note": "Hit rate of the full screen: of about 1,300 compounds, about 850 (65%) were called active. The set was probably picked from earlier hits. The shares of active, inactive and inconclusive entries below differ from those in the screen. The rule behind the calls is not given here."}
{"target": "Dual specificity tyrosine-phosphorylation-regulated kinase 1A (Rattus norvegicus) (UniProt Q63470)", "assay": "Dyrk1A enzyme activity inhibition – biochemical, cherry-pick, plate reader, 2124-01, dose response (AID 588345)", "conditions": "Dyrk1A kinase biochemical assay; at 12 µM (top of the series)"}
{"smiles": "Cc1[nH]nc2ccc(-c3cncc(OC[C@@H](N)Cc4c[nH]c5ccccc45)c3)cc12", "activity change, negative = inhibition": "inconclusive: -50.8%"}
